Experimental data as given in publication PMC12668627.
Read-outs that look alike come from different tables or passages of the source. No constants are given. Whether binding was seen depends on the method and setting. Binding seen in cells or lysates may run through a third protein. Some entries that bind do so weakly or less than the wild type. For part of these data: Tags and fused reporters may be left off the sequences shown.

Protein sequences, listed by entry. Tags and fused reporters are not part of them.
UniProt Q13485: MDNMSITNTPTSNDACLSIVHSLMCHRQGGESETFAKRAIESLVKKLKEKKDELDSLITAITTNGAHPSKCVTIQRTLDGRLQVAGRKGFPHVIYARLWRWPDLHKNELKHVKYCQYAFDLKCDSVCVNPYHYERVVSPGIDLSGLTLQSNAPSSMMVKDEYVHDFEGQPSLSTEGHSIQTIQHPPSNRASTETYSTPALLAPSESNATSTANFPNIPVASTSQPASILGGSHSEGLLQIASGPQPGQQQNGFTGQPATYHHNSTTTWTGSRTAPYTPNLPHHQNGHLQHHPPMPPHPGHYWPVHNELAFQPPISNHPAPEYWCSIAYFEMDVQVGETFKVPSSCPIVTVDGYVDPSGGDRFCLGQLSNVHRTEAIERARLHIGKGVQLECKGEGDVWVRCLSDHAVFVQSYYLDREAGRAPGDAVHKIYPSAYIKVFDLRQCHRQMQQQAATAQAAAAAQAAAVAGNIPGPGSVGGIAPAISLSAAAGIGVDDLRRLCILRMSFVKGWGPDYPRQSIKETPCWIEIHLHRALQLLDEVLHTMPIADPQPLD
UniProt P35222: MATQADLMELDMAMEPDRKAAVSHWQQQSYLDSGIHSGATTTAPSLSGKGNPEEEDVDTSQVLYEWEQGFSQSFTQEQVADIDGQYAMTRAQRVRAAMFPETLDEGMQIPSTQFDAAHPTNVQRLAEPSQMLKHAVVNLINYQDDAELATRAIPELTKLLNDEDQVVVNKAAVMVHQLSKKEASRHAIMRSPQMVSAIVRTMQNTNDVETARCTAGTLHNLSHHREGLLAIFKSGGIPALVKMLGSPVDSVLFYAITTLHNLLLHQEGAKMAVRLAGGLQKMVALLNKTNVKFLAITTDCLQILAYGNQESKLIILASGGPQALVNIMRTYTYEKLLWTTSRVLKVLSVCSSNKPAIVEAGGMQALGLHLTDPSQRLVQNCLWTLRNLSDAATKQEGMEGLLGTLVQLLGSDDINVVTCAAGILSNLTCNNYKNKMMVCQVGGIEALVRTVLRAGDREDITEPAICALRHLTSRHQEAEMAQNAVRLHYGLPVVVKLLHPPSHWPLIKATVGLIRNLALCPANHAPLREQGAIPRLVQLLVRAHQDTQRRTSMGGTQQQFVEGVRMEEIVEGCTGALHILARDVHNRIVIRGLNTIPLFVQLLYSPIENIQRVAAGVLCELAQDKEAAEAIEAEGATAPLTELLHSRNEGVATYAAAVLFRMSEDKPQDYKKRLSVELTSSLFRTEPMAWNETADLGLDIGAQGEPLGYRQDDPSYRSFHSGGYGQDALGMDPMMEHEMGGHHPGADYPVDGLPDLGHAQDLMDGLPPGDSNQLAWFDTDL
UniProt P84022: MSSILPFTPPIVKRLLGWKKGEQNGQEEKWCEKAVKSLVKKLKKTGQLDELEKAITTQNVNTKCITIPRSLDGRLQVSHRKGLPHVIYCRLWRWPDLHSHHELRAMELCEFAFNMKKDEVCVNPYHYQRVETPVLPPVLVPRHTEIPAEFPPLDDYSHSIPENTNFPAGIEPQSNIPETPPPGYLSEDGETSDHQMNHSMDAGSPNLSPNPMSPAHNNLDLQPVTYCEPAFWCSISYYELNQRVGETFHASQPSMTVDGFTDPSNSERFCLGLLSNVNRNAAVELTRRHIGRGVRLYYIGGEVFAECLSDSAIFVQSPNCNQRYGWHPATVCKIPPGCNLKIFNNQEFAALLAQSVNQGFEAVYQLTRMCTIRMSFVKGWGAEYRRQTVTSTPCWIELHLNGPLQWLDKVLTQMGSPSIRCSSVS
UniProt Q93009: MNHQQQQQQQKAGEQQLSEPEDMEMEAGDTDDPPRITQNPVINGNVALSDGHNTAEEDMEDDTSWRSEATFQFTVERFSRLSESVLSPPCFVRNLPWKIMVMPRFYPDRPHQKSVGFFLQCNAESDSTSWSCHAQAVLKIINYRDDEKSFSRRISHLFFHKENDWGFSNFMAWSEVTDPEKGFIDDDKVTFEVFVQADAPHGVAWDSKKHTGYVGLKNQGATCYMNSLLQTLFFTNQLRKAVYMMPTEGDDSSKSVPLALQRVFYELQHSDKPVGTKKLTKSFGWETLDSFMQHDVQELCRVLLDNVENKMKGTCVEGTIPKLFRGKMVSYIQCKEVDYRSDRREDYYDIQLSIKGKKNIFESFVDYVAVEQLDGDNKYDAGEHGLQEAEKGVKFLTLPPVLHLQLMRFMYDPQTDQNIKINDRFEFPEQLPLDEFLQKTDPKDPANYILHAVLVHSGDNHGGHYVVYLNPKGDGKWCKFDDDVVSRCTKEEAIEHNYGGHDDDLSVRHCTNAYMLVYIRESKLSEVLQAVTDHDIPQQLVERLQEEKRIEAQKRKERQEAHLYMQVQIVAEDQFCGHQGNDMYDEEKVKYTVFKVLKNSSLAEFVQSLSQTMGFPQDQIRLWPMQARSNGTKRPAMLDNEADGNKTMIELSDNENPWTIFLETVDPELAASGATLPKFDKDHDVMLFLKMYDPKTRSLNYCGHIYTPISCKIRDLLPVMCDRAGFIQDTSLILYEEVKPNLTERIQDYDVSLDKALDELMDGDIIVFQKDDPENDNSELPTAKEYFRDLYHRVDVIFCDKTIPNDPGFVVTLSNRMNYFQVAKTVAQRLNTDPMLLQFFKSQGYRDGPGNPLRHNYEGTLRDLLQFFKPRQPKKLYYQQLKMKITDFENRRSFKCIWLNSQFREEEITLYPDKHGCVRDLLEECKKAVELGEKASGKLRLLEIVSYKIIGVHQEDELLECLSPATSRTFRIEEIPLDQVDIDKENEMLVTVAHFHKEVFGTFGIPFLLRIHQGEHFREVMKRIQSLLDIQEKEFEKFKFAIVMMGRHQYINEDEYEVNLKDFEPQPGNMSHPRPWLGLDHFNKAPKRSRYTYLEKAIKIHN

Columns and labels:
Assay in all cases: co-IP; HEK293T cells transfected with plasmids for Flag-fused proteins, RIPA lysate, anti-Flag affinity beads 4 °C 2 hours or overnight, immunoblot; HA-TbC or GFP-Flag as controls; TRIM33 with β-catenin also with or without Wnt3a stimulation
[1] = molecular target: SMAD4 (construct of the Flag-IP) (UniProt Q13485)
[2] = molecular target: SMAD4 (construct of the Flag-IP) (UniProt Q13485); remark: listed apart in the source
[3] = molecular target: β-catenin (construct of the Flag-IP) (human) (UniProt P35222)
[4] = molecular target: SMAD3 (construct of the Flag-IP) (UniProt P84022)

Row | binding [1] | binding [2] | binding [3] | binding [4] | Molecule
1 | binds |  |  |  | USP7 (expression construct of the Flag-IP) (from UniProt Q93009 1-1102)
2 |  | binds | binds |  | ERC1 (expression construct of the Flag-IP) (protein, UniProt Q8IUD2 1-1116) MYGSARSVGKVEPSSQSPGRSPRLPRSPRLGHRRTNSTGGSSGSSVGGGSGKTLSMENIQSLNAAYATSGPMYLSDHENVGSETPKSTMTLGRSGGRLPYGVRMTAMGSSPNIASSGVASDTIAFGEHHLPPVSMASTVPHSLRQARDNTIMDLQTQLKEVLRENDLLRKDVEVKESKLSSSMNSIKTFWSPELKKERALRKDEASKITIWKEQYRVVQEENQHMQMTIQALQDELRIQRDLNQLFQQDSSSRTGEPCVAELTEENFQRLHAEHERQAKELFLLRKTLEEMELRIETQKQTLNARDESIKKLLEMLQSKGLSAKATEEDHERTRRLAEAEMHVHHLESLLEQKEKENSMLREEMHRRFENAPDSAKTKALQTVIEMKDSKISSMERGLRDLEEEIQMLKSNGALSTEEREEEMKQMEVYRSHSKFMKNKVEQLKEELSSKEAQWEELKKKAAGLQAEIGQVKQELSRKDTELLALQTKLETLTNQFSDSKQHIEVLKESLTAKEQRAAILQTEVDALRLRLEEKETMLNKKTKQIQDMAEEKGTQAGEIHDLKDMLDVKERKVNVLQKKIENLQEQLRDKEKQMSSLKERVKSLQADTTNTDTALTTLEEALAEKERTIERLKEQRDRDEREKQEEIDNYKKDLKDLKEKVSLLQGDLSEKEASLLDLKEHASSLASSGLKKDSRLKTLEIALEQKKEECLKMESQLKKAHEAALEARASPEMSDRIQHLEREITRYKDESSKAQAEVDRLLEILKEVENEKNDKDKKIAELERQVKDQNKKVANLKHKEQVEKKKSAQMLEEARRREDNLNDSSQQLQDSLRKKDDRIEELEEALRESVQITAEREMVLAQEESARTNAEKQVEELLMAMEKVKQELESMKAKLSSTQQSLAEKETHLTNLRAERRKHLEEVLEMKQEALLAAISEKDANIALLELSSSKKKTQEEVAALKREKDRLVQQLKQQTQNRMKLMADNYEDDHFKSSHSNQTNHKPSPDQIIQPLLELDQNRSKLKLYIGHLTTLCHDRDPLILRGLTPPASYNLDDDQAAWENELQKMTRGQLQDELEKGERDNAELQEFANAILQQIADHCPDILEQVVNALEESS
3 |  | binds weakly | binds | binds | TRIM33 (expression construct) (protein, UniProt Q9UPN9 1-1127) MAENKGGGEAESGGGGSGSAPVTAGAAGPAAQEAEPPLTAVLVEEEEEEGGRAGAEGGAAGPDDGGVAAASSGSAQAASSPAASVGTGVAGGAVSTPAPAPASAPAPGPSAGPPPGPPASLLDTCAVCQQSLQSRREAEPKLLPCLHSFCLRCLPEPERQLSVPIPGGSNGDIQQVGVIRCPVCRQECRQIDLVDNYFVKDTSEAPSSSDEKSEQVCTSCEDNASAVGFCVECGEWLCKTCIEAHQRVKFTKDHLIRKKEDVSESVGASGQRPVFCPVHKQEQLKLFCETCDRLTCRDCQLLEHKEHRYQFLEEAFQNQKGAIENLLAKLLEKKNYVHFAATQVQNRIKEVNETNKRVEQEIKVAIFTLINEINKKGKSLLQQLENVTKERQMKLLQQQNDITGLSRQVKHVMNFTNWAIASGSSTALLYSKRLITFQLRHILKARCDPVPAANGAIRFHCDPTFWAKNVVNLGNLVIESKPAPGYTPNVVVGQVPPGTNHISKTPGQINLAQLRLQHMQQQVYAQKHQQLQQMRMQQPPAPVPTTTTTTQQHPRQAAPQMLQQQPPRLISVQTMQRGNMNCGAFQAHQMRLAQNAARIPGIPRHSGPQYSMMQPHLQRQHSNPGHAGPFPVVSVHNTTINPTSPTTATMANANRGPTSPSVTAIELIPSVTNPENLPSLPDIPPIQLEDAGSSSLDNLLSRYISGSHLPPQPTSTMNPSPGPSALSPGSSGLSNSHTPVRPPSTSSTGSRGSCGSSGRTAEKTSLSFKSDQVKVKQEPGTEDEICSFSGGVKQEKTEDGRRSACMLSSPESSLTPPLSTNLHLESELDALASLENHVKIEPADMNESCKQSGLSSLVNGKSPIRSLMHRSARIGGDGNNKDDDPNEDWCAVCQNGGDLLCCEKCPKVFHLTCHVPTLLSFPSGDWICTFCRDIGKPEVEYDCDNLQHSKKGKTAQGLSPVDQRKCERLLLYLYCHELSIEFQEPVPASIPNYYKIIKKPMDLSTVKKKLQKKHSQHYQIPDDFVADVRLIFKNCERFNEMMKVVQVYADTQEINLKADSEVAQAGKAVALYFEDKLTEIYSDRTFAPLPEFEQEEDDGEVTEDSDEDFIQPRRKRLKSDERPVHIK
